The list shows only some results of the screen, not a fair sample: it is rich in T/C values a quarter to a half above the control, in often repeated tests (any T/C) and in doses without a T/C. Other doses and runs of a compound stand elsewhere. T/C gives the treated animals as a percentage of the vehicle group. Some doses have a count of surviving animals in place of a T/C: the source files T/C as zero there, which appears to mark a toxic dose or a test without result, not a measured value. Some survivor counts are full or nearly so, which does not show that the dose was tolerated: survival well below the control is almost never listed, so the zero probably covers shortened survival too. Survivors were counted at the toxicity check, usually on the fifth day, unless a day is given; later deaths do not show. Schedule codes are those of the source, read here as Q, the interval in days (D) or hours (H), X, the number of doses. Some entries were tested several times; their values stand side by side, smallest first. Counts like (3×) say how often a value occurs here. For survival time, the PubChem record calls one and a half times the control and up active, and a quarter to a half above the control has no call in these data; cut-offs in other NCI protocols can differ. Some T/C values are followed by the survivors on the day toxicity was checked, most often the fifth; where none is given, no animal had died by that day.

The assay relates to P388 leukemia ip, CD2F1 mice, survival T/C. As to the kind of experiment: NCI In Vivo Anticancer Drug Screen. Data for tumor model P388 Leukemia (intraperitoneal) in CD2F1 (CDF1) mice. To be noted: T/C endpoint: median survival time, higher T/C = longer survival.
[1] abbreviates: dose: 200.0 mg/kg/injection, schedule: Q01DX005 (ip), vehicle: Klucel (hydroxypropylcellulose) (HPC).
[2] abbreviates: dose: 50.0 mg/kg/injection, schedule: Q01DX009 (ip), vehicle: saline with Tween-80.

For the molecule `COc1cc2c(cc1OC)[N+]([O-])=C(c1ccccc1)C2=O`, the survivor count under setting [1] is 3 of 6.
Turning to `Cc1c2ccn(CCCCCCCCn3ccc4c(C)c5nc6ccccc6c5c(C)c4c3)cc2c(C)c2c1nc1ccccc12`, the T/C was 125 % of control (dose: 6.25 mg/kg/injection, schedule: Q04DX003 (ip), vehicle: distilled water + Tween-80, evaluated on day 30); 127 % of control (dose: 6.25 mg/kg/injection, schedule: Q04DX003 (ip), vehicle: distilled water + Tween-80, evaluated on day 60); 131 and 136 % of control (dose: 12.5 mg/kg/injection, schedule: Q04DX003 (ip), vehicle: distilled water + Tween-80, evaluated on day 30); 127 % of control (dose: 12.5 mg/kg/injection, schedule: Q04DX003 (ip), vehicle: distilled water + Tween-80, evaluated on day 60); 140 % of control (dose: 25.0 mg/kg/injection, schedule: Q04DX003 (ip), vehicle: distilled water + Tween-80, evaluated on day 30); 138 % of control (dose: 25.0 mg/kg/injection, schedule: Q04DX003 (ip), vehicle: distilled water + Tween-80, evaluated on day 60). Further, the T/C (dose: 50.0 mg/kg/injection, schedule: Q04DX003 (ip), vehicle: distilled water + Tween-80, evaluated on day 30) was 142 % of control and the T/C (dose: 50.0 mg/kg/injection, schedule: Q04DX003 (ip), vehicle: distilled water + Tween-80, evaluated on day 60) was 138 % of control. Besides, the survivor count is 2 of 6 (dose: 50.0 mg/kg/injection, schedule: Q04DX003 (ip), vehicle: distilled water + Tween-80); 0 of 6 and 4 of 6 (dose: 100.0 mg/kg/injection, schedule: Q04DX003 (ip), vehicle: distilled water + Tween-80); 1 of 6 (dose: 200.0 mg/kg/injection, schedule: Q04DX003 (ip), vehicle: distilled water + Tween-80).
With `CC1(C)CSCC(C)(C)C2(C=CC=CC=N2)C1=O` (stereo not given), the survivor count under setting [1] was 4 of 5.
In the case of `COC1C=C(Br)C(=O)C(C)O1` (stereo not given), the survivor count (dose: 400.0 mg/kg/injection, schedule: Q04DX003 (ip), vehicle: Klucel (hydroxypropylcellulose) (HPC)) is on record as 0 of 6.
On to `CC1=NN(c2ccccc2)C/C1=N\O`, for which the survivor count under setting [1] is on record as 0 of 6.
As for `COc1cc2c(c(OC)c1OC)-c1ccc(SC)c(=O)cc1[C@@H](NC1OC(CO)C(O)C(O)C1O)CC2` (stereo not given in full), the T/C runs as follows: (dose: 12.5 mg/kg/injection, schedule: Q01DX009 (ip), vehicle: saline, evaluated on day 30) 127, 128, 130 % of control; (dose: 12.5 mg/kg/injection, schedule: Q01DX009 (ip), vehicle: saline, evaluated on day 60) 130 % of control; (dose: 25.0 mg/kg/injection, schedule: Q01DX009 (ip), vehicle: saline, evaluated on day 30) 148 % of control (2×); (dose: 25.0 mg/kg/injection, schedule: Q01DX009 (ip), vehicle: saline, evaluated on day 60) 145 % of control. Further, the survivor count runs as follows: (dose: 50.0 mg/kg/injection, schedule: Q01DX009 (ip), vehicle: saline) 6 of 6; (dose: 100.0 mg/kg/injection, schedule: Q01DX009 (ip), vehicle: saline) 4 of 6 and 5 of 6 (2×).
`CC(=O)OC1OC(/C=N\N(C)C)C(OCc2ccccc2)C(OCc2ccccc2)C1OC(C)=O` (stereo not given): the survivor count is reported as 5 of 5 (dose: 3.12 mg/kg/injection, schedule: Q01DX009 (ip), vehicle: Klucel (hydroxypropylcellulose) (HPC)) and 6 of 6 (dose: 12.5 mg/kg/injection, schedule: Q01DX009 (ip), vehicle: other).
On to `O=C/C=C/c1ccc2c(c1)OC(CO)C(c1ccc(O)c(O)c1)O2` (stereo not given), for which the survivor count is 6 of 6 (dose: 12.5 mg/kg/injection, schedule: Q01DX005 (ip), vehicle: Klucel (hydroxypropylcellulose) (HPC)); 6 of 6 (dose: 25.0 mg/kg/injection, schedule: Q01DX005 (ip), vehicle: Klucel (hydroxypropylcellulose) (HPC)); 6 of 6 (dose: 50.0 mg/kg/injection, schedule: Q01DX005 (ip), vehicle: Klucel (hydroxypropylcellulose) (HPC)); 6 of 6 (dose: 100.0 mg/kg/injection, schedule: Q01DX005 (ip), vehicle: Klucel (hydroxypropylcellulose) (HPC)); 5 of 6 under setting [1].
For the molecule `CC1C(c2ccccc2)NC(c2ccccc2)C(C)C1(O)c1ccccc1` (stereo not given), the survivor count (dose: 200.0 mg/kg/injection, schedule: Q01DX005 (ip), vehicle: saline with Tween-80) is listed as 0 of 6.
For `O=C(Oc1c(Cc2ccccc2)c(=O)[nH]c2ccccc12)c1ccccc1`, the survivor count (dose: 240.0 mg/kg/injection, schedule: Q01DX005 (ip), vehicle: Klucel (hydroxypropylcellulose) (HPC)) is listed as 1 of 6.
Consider `O=C(Nc1ccccc1O)/C(Cl)=C/Cl`, for which the T/C (dose: 22.0 mg/kg/injection, schedule: Q01DX009 (ip), vehicle: saline with Tween-80) was 125 % of control; the T/C (dose: 25.0 mg/kg/injection, schedule: Q01DX009 (ip), vehicle: saline with Tween-80) is 140 % of control; the T/C under setting [2] was 125 and 127 % of control. Also, the survivor count by setting is: (dose: 100.0 mg/kg/injection, schedule: Q01DX009 (ip), vehicle: saline with Tween-80) 3 of 6; (dose: 400.0 mg/kg/injection, schedule: Q04DX003 (ip), vehicle: saline with Tween-80) 5 of 6.
Consider `COc1cc(C(N)CCc2ccc3c(c2)OCO3)cc(OC)c1OC` (stereo not given), for which, under setting [1], the survivor count is reported as 0 of 5.
In the case of `CC(c1ccccc1)C1CCN(C)CC1` (stereo not given), the survivor count (dose: 50.0 mg/kg/injection, schedule: Q04DX002 (ip), vehicle: saline) is recorded as 6 of 6; the survivor count (dose: 100.0 mg/kg/injection, schedule: Q04DX002 (ip), vehicle: saline) is recorded as 1 of 6; the survivor count (dose: 200.0 mg/kg/injection, schedule: Q04DX002 (ip), vehicle: saline) is reported as 0 of 6; the survivor count (dose: 400.0 mg/kg/injection, schedule: Q04DX002 (ip), vehicle: saline) is 0 of 6.
In the case of `COc1cccc2c1C(=O)c1c(O)c3c(c(O)c1C2=O)C[C@@](O)(/C(C)=N/NC(=O)c1ccc(N(C)C)cc1)C[C@@H]3OC1CC(N)C(O)C(C)O1` (stereo not given in full), the T/C is, setting by setting: (dose: 0.25 mg/kg/injection, schedule: Q01DX009 (ip), vehicle: water) 133 % of control; (dose: 2.5 mg/kg/injection, schedule: Q01DX001 (ip), vehicle: water) 138 % of control; (dose: 5.0 mg/kg/injection, schedule: Q01DX001 (ip), vehicle: water) 142 % of control; (dose: 8.0 mg/kg/injection, schedule: Q01DX009 (ip), vehicle: water) 136 % of control. In addition, the survivor count (dose: 16.0 mg/kg/injection, schedule: Q01DX009 (ip), vehicle: water) is listed as 6 of 6 and the survivor count (dose: 80.0 mg/kg/injection, schedule: Q01DX001 (ip), vehicle: water) is listed as 3 of 6.
On to `CCCCCCCCCCCCCCCCCC(=O)NC(CC(=O)OCCCCCC)c1ccc(N(CCCl)CCCl)cc1` (stereo not given), for which the T/C (dose: 2.15 mg/kg/injection, schedule: Q01DX009 (ip), vehicle: saline) was 145 % of control; the T/C (dose: 2.15 mg/kg/injection, schedule: Q03HX008 (ip), vehicle: saline) is 125 % of control; the T/C (dose: 4.3 mg/kg/injection, schedule: Q03HX008 (ip), vehicle: saline) is 140 % of control; the T/C (dose: 69.0 mg/kg/injection, schedule: Q03HX008 (ip), vehicle: saline) was 145 % of control [9 of 10 alive].
Take `C=c1[nH]c(=O)c(=C)[nH]c1=O`: for the setting “dose: 200.0 mg/kg/injection, schedule: Q01DX009 (ip), vehicle: other”, the survivor count was 2 of 6.
As to `CC(C)N[P+](c1ccccc1)(c1ccccc1)c1ccccc1`, the survivor count is listed as 1 of 6 (dose: 50.0 mg/kg/injection, schedule: Q04DX003 (ip), vehicle: saline) and 0 of 6 (dose: 100.0 mg/kg/injection, schedule: Q04DX003 (ip), vehicle: saline).
`O=C(/C=C/c1ccccc1O)/C=C/c1ccccc1O`: where the note is “dose: 12.5 mg/kg/injection, schedule: Q01DX009 (ip), vehicle: saline with Tween-80”, the T/C was 125 % of control. Further, the survivor count under setting [2] is on record as 4 of 6.

Source of the values: PubChem BioAssay AID330 (DTP/NCI, 2004).
